Test results as given in publication PMC10163288.
The list shows a part of the results.

B1: il2ra_site1_2b5i_normal_mot_f5ff40796168375b462bec8614a1db4a_0001_1_000000138_0001_53_65_H_._HHH_b2_04138_af2_0001_0000300030_0000001_0_af2pred_0001_af2pred_1 (protein)
chain: SSSSDLREELVEALIREAEELIKEGDKERARHILVLAAAIARKANNEELLREVEELLKELSSSSS
B2: il2ra_site2_2erj_sap_26_mot_HHH_b2_01423_af2_000000017_0001_43_57_H_._3824cfb560b92ee870597236e80092b0_0001_0001_0000300033_0000001_0_0001 (protein)
chain: SSSSDASELSDEAFEEAARLFEKGDPEEAEKVLEEVLERLEELNDPHAVETLRLLLRFLRTSSSS
B3: il2ra_site2_2erj_sap_28_mot_c2bf78bdce995293a161f7082e24b401_0001_000000177_0001_37_51_H_._HHH_b2_03766_af2_0001_0001200026_0000001_0_0001 (protein)
chain: SSSSDLHELYKLLNELMELLHRGDEEEARRVLEEARRLAEEFGSRNVKEVLEFLFKNFERSSSSS
B4: il2ra_site1_3nfp_normal_mot_HHH_b1_07644_af2_000000110_0001_40_57_H_._HEEHE_2706_0001_0000200023_0000001_0 (protein)
chain: DQEEIVRRLIEQKAKQAGVPHVEVEVHNGTFTVTVEGDDEAAEKVLEHAEEAAERVGVPIHVETR
B5: il2ra_site2_3nfp_normal_mot_HHH_b2_08209_000000146_0001_1_18_H_._HHH_b1_04301_0001_0000300020_0000001_0 (protein)
chain: SSSSSEEVEELLEKVEELLKRGDYEEARKLLKRAADLAFQAGDFELFARLQDLFELVLRLSSSSS
B6: il2ra_site2_3nfp_sap_26_mot_HHH_b1_05845_af2_000000292_0001_20_37_H_._77bd590ed5d37effd7ce5f2f52e6dcee_0001_0001_0000300009_0000001_0_0001 (protein)
chain: SSSSSDNSEEYLRAALALLERAKSEEEFEKLFEMIRLAAESNNDEEIEELLEELREKWESSSSSS
B7: il2ra_site1_2b5i_normal_mot_09770d796a13084421b44ad29b674de3_0001_1_000000065_0001_17_32_H_._HHH_b2_03211_0001_0000300015_0000001_0_af2pred_dldesign_0_af2pred (protein)
chain: SSSSRVEELLAEARRLIEEGKLEEAREVLERARDLAEEAEDPELLKKVNEVLKELYKAELSSSSS
B8: il2ra_site2_3nfp_normal_mot_HHH_b1_05628_af2_000000064_0001_19_35_H_._HHH_b1_04724_af2_0001_0000200013_0000001_0_af2pred_0001_af2pred (protein)
chain: SSSSDEEEEVKELLREAKELLERGNPEEAEKVVLRAASIASELGNFELFAAATRLAEEIHRSSSS
B9: il2ra_site1_3nfp_sap_10_mot_HHH_b1_06312_000000077_0001_1_18_H_._HHH_b1_02469_af2_0001_0000200012_0000001_0_0001 (protein)
chain: TFVEEAIEEIEKRDEELSELLRKVYELAHEKQDPELFRLLIRALAAVQQGNPEKAKKLLKEAEER
B10: il2ra_site1_3nfp_normal_mot_5dea99290cf7e133ebc5b763b21a7a39_0001_000000141_0001_34_49_H_._9a51d51d2fb94bb7d8a0fe0c4708f7cc_0001_0001_0000300025_0000001_1 (protein)
chain: SAAEQAIKAAERLAPPELRRLLREILEEIEKNPEDARLLQLLSKLVDLIWKGNEEEAEELAKEVT
B11: il2ra_site1_3nfp_sap_13_mot_HHH_b1_02647_af2_000000015_0001_39_52_H_._HHH_b1_04164_0001_0000400045_0000001_0_0001 (protein)
chain: SSSSSDLEEDAKYLVEFLVELNGLSEEQEERLEKLAEELVKRGLDAAEIARALMKLAARLSSSSS
B12: il2ra_site2_3nfp_normal_mot_HHH_b2_07840_000000026_0001_18_34_H_._HHH_b1_00395_0001_0000300009_0000001_0_af2pred_0001_af2pred (protein)
chain: SSSSSDEEIREEVEELLELAERIEDEIEVFAVLADALRLALELEDPELERLVQEVARRLKSSSSS
B13: il2ra_site1_1z92_normal_mot_HHH_b1_08075_000000018_0001_1_20_H_._HHH_b1_07718_0001_0000200023_0000001_0 (protein)
chain: SSSSSRAEHIAVRLFLQTAERAIEAGNPRAAERLLRFAEEAARIGNDEELLEEVERLLEELSSSS
B14: il2ra_site1_3nfp_normal_mot_HHH_b1_02637_af2_000000026_0001_1_18_H_._HHH_b2_01402_af2_0001_0000200009_0000001_0_af2pred_0001_af2pred (protein)
chain: SSSSDKEEAERLLRQATELLRNGNPEEAREVLEEALKIAEESGDEVLARFLRIALEIAKTGSSSS
B15: il2ra_site2_2erj_normal_mot_HHH_b1_02106_af2_000000056_0001_20_36_H_._HHH_b1_08722_0001_0000300007_0000001_0 (protein)
chain: SSSDKEEKAKELLEEVERLLEEGDTEEAERVVRKAAALAIEANDFELFAELSELTRLIAELSSSS
B16: il2ra_site2_3nfp_sap_19_mot_HHH_b2_06150_000000217_0001_39_53_H_._HHH_b2_00198_af2_0001_0000700033_0000001_0_0001 (protein)
chain: SSSSSSSDEEEVEELLEEAKQIDDEEELLRVLLRAAHIAWKNRDEELYARISEVIEKLSSSSSSS
B17: il2ra_site1_1z92_sap_14_mot_47733d3662eb36425869ff66b6028fdd_0001_af2_000000189_0001_37_50_H_._HHH_b1_00762_af2_0001_0000200017_0000001_0_0001 (protein)
chain: SELEEILEEVLKLIPNPKAREFLRRQLERKLERGNEKAAIRLALDMAEMAGNPELARLLRELLEP
B18: il2ra_site1_3nfp_sap_12_mot_HHH_b1_04364_000000255_0001_42_57_H_._27223525e44f26cbb76cb0a34dbb38cc_0001_af2_0001_0000100007_0000001_0_0001_af2pred_0001_af2pred_ … (protein)
chain: TEELTEEILELLKKDPNEAYRLFRELLRKKGIPPEEARKLAEEVLRLAAKLPPEELEEFIRELLR

Each binder was assayed against il2ra, P01589 (assay: yeast display titration).

Apparent Kd, inactive:
B1 no binding seen
B2 no binding seen
B3 no binding seen
B4 no binding seen
B5 no binding seen
B6 no binding seen
B7 no binding seen
B8 no binding seen
B9 no binding seen
B10 no binding seen
B11 no binding seen
B12 no binding seen
B13 no binding seen
B14 no binding seen
B15 no binding seen
B16 no binding seen
B17 no binding seen
B18 no binding seen

2 records picked at random from the list so far, as already listed:
Apparent Kd, inactive:
B3 no binding seen
B4 no binding seen
